US20200270309A1 (NANJING ANJI BIOLOGICAL TECHNOLOGY CO., LTD, priority 2017, published 2020)

Assay: general procedure: Fmoc solid-phase peptide synthesis; Fmoc-wang-resin
Conditions: whole synthesis, analytical RP-HPLC

Substance | final HPLC purity [%]
PEPTIDE1{[Mal-EO1-C3-CO].R.G.A.D.R.A.G.G.G.G.R.G.D}$$$$V2.0 | 98.27
PEPTIDE1{[Mal-pPh-C2-CO].R.G.A.D.R.A.G.G.G.G.R.G.D}$$$$V2.0 | 97.50
PEPTIDE1{[Mal-EO1-C2-CO].R.G.A.D.R.A.G.G.G.G.R.G.D}$$$$V2.0 | 97.77
PEPTIDE1{[Mal-EO4-C3].R.G.A.D.R.A.G.G.G.G.R.G.D}$$$$V2.0 | 97.97
PEPTIDE1{[Mal-EO1-C1-CO].R.G.A.D.R.A.G.G.G.G.R.G.D}$$$$V2.0 | 97.46
PEPTIDE1{[Mal-pPh-C7-CO].R.G.A.D.R.A.G.G.G.G.R.G.D}$$$$V2.0 | 97.59
PEPTIDE1{[MalPEG6C6].R.G.A.D.R.A.G.G.G.G.R.G.D}$$$$V2.0 | 97.69
PEPTIDE1{[Mal(CH2)11CO].R.G.A.D.R.A.G.G.G.G.R.G.D}$$$$V2.0 | 98.19
PEPTIDE1{[Mal-EO1-C7-CO].R.G.A.D.R.A.G.G.G.G.R.G.D}$$$$V2.0 | 98.28
PEPTIDE1{[Mal-pPh-C1-CO].R.G.A.D.R.A.G.G.G.G.R.G.D}$$$$V2.0 | 98.00
PEPTIDE1{[MalPEG5C3].R.G.A.D.R.A.G.G.G.G.R.G.D}$$$$V2.0 | 98.37
PEPTIDE1{[Mal-EO2-C3].R.G.A.D.R.A.G.G.G.G.R.G.D}$$$$V2.0 | 97.85
PEPTIDE1{[Mal(CH2)7CO].R.G.A.D.R.A.G.G.G.G.R.G.D}$$$$V2.0 | 97.57
PEPTIDE1{[Mal-pPh-C3-CO].R.G.A.D.R.A.G.G.G.G.R.G.D}$$$$V2.0 | 98.68
PEPTIDE1{[Mal-EO3-C2].R.G.A.D.R.A.G.G.G.G.R.G.D}$$$$V2.0 | 98.19
PEPTIDE1{[MalPEG5C5].R.G.A.D.R.A.G.G.G.G.R.G.D}$$$$V2.0 | 97.78
PEPTIDE1{[MalPEG5C1].R.G.A.D.R.A.G.G.G.G.R.G.D}$$$$V2.0 | 97.98
PEPTIDE1{[oMalPh(CH2)4CO].R.G.A.D.R.A.G.G.G.G.R.G.D}$$$$V2.0 | 97.85
PEPTIDE1{[Mal-EO2-C4].R.G.A.D.R.A.G.G.G.G.R.G.D}$$$$V2.0 | 98.68
PEPTIDE1{[Mal-pPh-C10-CO].R.G.A.D.R.A.G.G.G.G.R.G.D}$$$$V2.0 | 98.74
PEPTIDE1{[Mal(CH2)8CO].R.G.A.D.R.A.G.G.G.G.R.G.D}$$$$V2.0 | 98.58
PEPTIDE1{[Mal-EO4-C7].R.G.A.D.R.A.G.G.G.G.R.G.D}$$$$V2.0 | 97.54
PEPTIDE1{[Mal-pPh-C5-CO].R.G.A.D.R.A.G.G.G.G.R.G.D}$$$$V2.0 | 98.34
PEPTIDE1{[Mal-pPh-C8-CO].R.G.A.D.R.A.G.G.G.G.R.G.D}$$$$V2.0 | 97.70

Substance | final HPLC purity [%]
PEPTIDE1{[Mal(CH2)3CO].R.G.A.D.R.A.G.G.G.G.R.G.D}$$$$V2.0 | 97.77
PEPTIDE1{[Mal-EO3-C6].R.G.A.D.R.A.G.G.G.G.R.G.D}$$$$V2.0 | 97.69
PEPTIDE1{[Mal(CH2)10CO].R.G.A.D.R.A.G.G.G.G.R.G.D}$$$$V2.0 | 98.36
PEPTIDE1{[Mal-EO2-C2].R.G.A.D.R.A.G.G.G.G.R.G.D}$$$$V2.0 | 97.50
PEPTIDE1{[Mal(CH2)2CO].R.G.A.D.R.A.G.G.G.G.R.G.D}$$$$V2.0 | 97.44
PEPTIDE1{[Mal-EO1-C5-CO].R.G.A.D.R.A.G.G.G.G.R.G.D}$$$$V2.0 | 98.70
PEPTIDE1{[MalPEG6C4].R.G.A.D.R.A.G.G.G.G.R.G.D}$$$$V2.0 | 97.43
PEPTIDE1{[Mal-EO3-C1].R.G.A.D.R.A.G.G.G.G.R.G.D}$$$$V2.0 | 97.71
PEPTIDE1{[Mal-EO3-C7].R.G.A.D.R.A.G.G.G.G.R.G.D}$$$$V2.0 | 98.37
PEPTIDE1{[Mal-pPh-C4-CO].R.G.A.D.R.A.G.G.G.G.R.G.D}$$$$V2.0 | 98.34
PEPTIDE1{[MalPEG6C3].R.G.A.D.R.A.G.G.G.G.R.G.D}$$$$V2.0 | 98.21
PEPTIDE1{[MalPEG6C7].R.G.A.D.R.A.G.G.G.G.R.G.D}$$$$V2.0 | 97.57
PEPTIDE1{[Mal-EO2-C5].R.G.A.D.R.A.G.G.G.G.R.G.D}$$$$V2.0 | 97.62
PEPTIDE1{[MalPEG6C1].R.G.A.D.R.A.G.G.G.G.R.G.D}$$$$V2.0 | 98.30
PEPTIDE1{[Mal-EO4-C2].R.G.A.D.R.A.G.G.G.G.R.G.D}$$$$V2.0 | 98.49
PEPTIDE1{[Mal(CH2)4CO].R.G.A.D.R.A.G.G.G.G.R.G.D}$$$$V2.0 | 98.53
PEPTIDE1{[Mal-EO1-C4-CO].R.G.A.D.R.A.G.G.G.G.R.G.D}$$$$V2.0 | 98.12
PEPTIDE1{[Mal-EO1-C6-CO].R.G.A.D.R.A.G.G.G.G.R.G.D}$$$$V2.0 | 98.75
PEPTIDE1{[oMalPh(CH2)2CO].R.G.A.D.R.A.G.G.G.G.R.G.D}$$$$V2.0 | 97.94
PEPTIDE1{[Mal-EO4-C5].R.G.A.D.R.A.G.G.G.G.R.G.D}$$$$V2.0 | 98.32
PEPTIDE1{[MalPEG5C6].R.G.A.D.R.A.G.G.G.G.R.G.D}$$$$V2.0 | 97.76
PEPTIDE1{[Mal(CH2)9CO].R.G.A.D.R.A.G.G.G.G.R.G.D}$$$$V2.0 | 98.60
PEPTIDE1{[Mal(CH2)6CO].R.G.A.D.R.A.G.G.G.G.R.G.D}$$$$V2.0 | 98.20
PEPTIDE1{[Mal-pPh-C6-CO].R.G.A.D.R.A.G.G.G.G.R.G.D}$$$$V2.0 | 97.48

Substance | final HPLC purity [%]
PEPTIDE1{[Mal-pPh-C9-CO].R.G.A.D.R.A.G.G.G.G.R.G.D}$$$$V2.0 | 98.11
PEPTIDE1{[Mal-EO3-C5].R.G.A.D.R.A.G.G.G.G.R.G.D}$$$$V2.0 | 98.61
PEPTIDE1{[Mal(CH2)1CO].R.G.A.D.R.A.G.G.G.G.R.G.D}$$$$V2.0 | 97.94
PEPTIDE1{[Mal-EO4-C6].R.G.A.D.R.A.G.G.G.G.R.G.D}$$$$V2.0 | 97.57
PEPTIDE1{[Mal-EO3-C4].R.G.A.D.R.A.G.G.G.G.R.G.D}$$$$V2.0 | 97.89
PEPTIDE1{[MalPEG5C2].R.G.A.D.R.A.G.G.G.G.R.G.D}$$$$V2.0 | 97.94
PEPTIDE1{[MalPEG5C7].R.G.A.D.R.A.G.G.G.G.R.G.D}$$$$V2.0 | 98.44
PEPTIDE1{[Mal-EO4-C4].R.G.A.D.R.A.G.G.G.G.R.G.D}$$$$V2.0 | 97.60
PEPTIDE1{[Mal-EO4-C1].R.G.A.D.R.A.G.G.G.G.R.G.D}$$$$V2.0 | 98.15
PEPTIDE1{[Mal-EO2-C7].R.G.A.D.R.A.G.G.G.G.R.G.D}$$$$V2.0 | 98.65
PEPTIDE1{[MalPEG6C5].R.G.A.D.R.A.G.G.G.G.R.G.D}$$$$V2.0 | 97.91
PEPTIDE1{[MalPEG5C4].R.G.A.D.R.A.G.G.G.G.R.G.D}$$$$V2.0 | 98.25
PEPTIDE1{[oMalPh(CH2)1CO].R.G.A.D.R.A.G.G.G.G.R.G.D}$$$$V2.0 | 97.56
PEPTIDE1{[Mal-EO2-C6].R.G.A.D.R.A.G.G.G.G.R.G.D}$$$$V2.0 | 98.32
PEPTIDE1{[Mal-pPh-C12-CO].R.G.A.D.R.A.G.G.G.G.R.G.D}$$$$V2.0 | 97.96
PEPTIDE1{[Mal(CH2)5CO].R.G.A.D.R.A.G.G.G.G.R.G.D}$$$$V2.0 | 98.62
PEPTIDE1{[Mal-pPh-C11-CO].R.G.A.D.R.A.G.G.G.G.R.G.D}$$$$V2.0 | 98.43
PEPTIDE1{[MalPEG6C2].R.G.A.D.R.A.G.G.G.G.R.G.D}$$$$V2.0 | 98.74
PEPTIDE1{[Mal-EO3-C3].R.G.A.D.R.A.G.G.G.G.R.G.D}$$$$V2.0 | 98.75
PEPTIDE1{[oMalPh(CH2)3CO].R.G.A.D.R.A.G.G.G.G.R.G.D}$$$$V2.0 | 98.07
PEPTIDE1{[Mal-EO2-C1-CO].R.G.A.D.R.A.G.G.G.G.R.G.D}$$$$V2.0 | 98.14
PEPTIDE1{[Mal(CH2)12CO].R.G.A.D.R.A.G.G.G.G.R.G.D}$$$$V2.0 | 98.28

Some peptides are written in HELM: one residue between dots, names in brackets for other building blocks, links after the first $.
